# According to paper PMC3948368:
# Construct, isoform or probe ends are uncertain for at least one entry. At least one result comes from cells or an extract, where the contact may be indirect.
# Target: EGFRvIII (U87-EGFRvIII cell lysate) del30-297 (UniProt P00533)
# Experiment: pull-down with anti-EGFR immunoblot
# Conditions: flow cytometry on ice 40 min, pull-down conditions not given, protein in a lysate after overexpression, single-stranded DNA
row,Sequence,binding result
1,ATCCAGAGTGACGCAGCATTTTGACGCTTTATCCTTTTCTTATGGCGGGATAGTTTCGTGGACACGGTGGCTTAGT [U2],binds
2,ATCCAGAGTGACGCAGCATGAATCTTTTCTTTTGGTTTTGATATTTATAGTTGGTGAATGGACACGGTGGCTTAGT [U8],binds
